Reference: the supplement of paper PMC10727501
Counter-ions that a name gives are not always drawn. This is one part of the list. This data set is noisy: repeats of one test often differ as much as different tests do.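 Researchers measured free-swimming zebrafish larvae's O-bend response probability to dark flashes (naive: first five; training: remaining flashes of four 60-flash blocks; test: later 60-flash block) and OMR turning toward alternating leftward/rightward LED motion. Six treated larvae were compared to sixty 0.1% DMSO controls, with |SSMD|≥2 marking a hit.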

system: Danio rerio larvae (5 dpf, TLF); experiment: Prob-Train (SSMD vs DMSO vehicle); higher = higher than vehicle (e.g. higher dark-flash O-bend response probability, or better optomotor performance); conditions: 10 µM; pre-incubation: 30-90 min

| Structure (SMILES) | Prob-Train |
| --- | --- |
| Cc1c(C(=O)Nc2ccc(N3CCC(N4CCOCC4)CC3)c(C#N)c2)cnn1-c1ccc(Cl)cc1 | 0.0601 |
| COc1cc2ncnc(-n3nc(-c4ccccn4)nc3N)c2cc1OC | -0.761 |
| CCN(CCO)CCCOc1ccc2c(Nc3cc(CC(=O)Nc4cccc(F)c4)n[nH]3)ncnc2c1 [Barasertib (AZD1152-HQPA)] | -0.345 |
| NC(=O)c1cn(Cc2c(F)cccc2F)nn1 [Rufinamide] | 0.00271 |
| O=C(NC[C@H](O)CO)c1ccncc1Nc1ccc(I)cc1F | -1.3 |
| S=c1nc[nH]c2nc[nH]c12 [Mercaptopurine (6-MP)] | 0.0382 |
| [I-].[K+] [Potassium Iodide] | 0.238 |
| O=C(/C=C\n1cnc(-c2cc(C(F)(F)F)cc(C(F)(F)F)c2)n1)N1CC(F)(F)C1 | -0.735 |
| C#C[C@@]1(O)CC[C@H]2[C@@H]3CCc4cc(OC)ccc4[C@@H]3CC[C@@]21C [Mestranol] | -2.59 |
| [NH2][Pt]([NH2])([Cl])[Cl] [Cisplatin] | -0.729 |
| CCC(=O)OCC(=O)[C@]1(OC(=O)CC)[C@@H](C)C[C@H]2[C@@H]3CCC4=CC(=O)C=C[C@]4(C)[C@]3(F)[C@H](O)C[C@@]21C [Betamethasone Dipropionate (Diprolene)] | -0.325 |
| Cl.c1ccc(CN(CC2=NCCN2)c2ccccc2)cc1 [Antazoline HCl] | -0.0155 |
| CN(C)C(=O)c1ccc(S(=O)(=O)c2ccc(NC(=O)C(C)(O)C(F)(F)F)c(Cl)c2)cc1 (stereo not given) | 0.0255 |
| c1ccc2c(Oc3nc(Nc4ccc(N5CCOCC5)cc4)c4ncn(C5CCCCC5)c4n3)cccc2c1 [Purmorphamine] | -0.439 |
| O=C(COc1ccc(C(=O)c2ccccc2)cc1)NC1CCN(Cc2ccccc2)CC1 [AdipoRon] | -0.89 |
| C[C@@H](CN1CC(=O)NC(=O)C1)N1CC(=O)NC(=O)C1.Cl [Dexrazoxane HCl (ICRF-187, ADR-529)] | -0.42 |
| CCOC(=O)C1=C[C@@]2(CC)CCCN3CCc4c(n1c1ccccc41)[C@@H]32 [Vinpocetine (Cavinton)] | -1.36 |
| C[C@H](CCC(=O)O)[C@@H]1CC[C@H]2[C@@H]3C[C@H](O)[C@@H]4C[C@H](O)CC[C@]4(C)[C@@H]3CC[C@@]21C [Hyodeoxycholic acid (HDCA)] | 0.313 |
| C#CCC(Cc1cnc2nc(N)nc(N)c2n1)c1ccc(C(=O)N[C@@H](CCC(=O)O)C(=O)O)cc1 (stereo not given in full) [Pralatrexate] | -0.0649 |
| CNC(=O)c1cc(Oc2ccc(NC(=O)Nc3cc(C(C)(C)C)nn3-c3ccc4ncccc4c3)c(F)c2)ccn1 [DCC-2036 (Rebastinib)] | 0.349 |

| Structure (SMILES) | Prob-Train |
| --- | --- |
| CC[C@@H]1OC(=O)[C@H](C)[C@@H](O[C@H]2C[C@@](C)(OC)[C@@H](O)[C@H](C)O2)C(C)[C@@H](O[C@@H]2O[C@H](C)C[C@H](N(C)C)[C@H]2O)[C@](C)(O)C[C@@H](C)CN(C)[C@H](C)[C@@H](O)[C@]1(C)O.O.O (stereo not given in full) [Azithromycin Dihydrate] | 0.133 |
| OC[C@H]1O[C@@H](Oc2ccc(O)cc2)[C@H](O)[C@@H](O)[C@@H]1O [Arbutin] | 0.16 |
| C#Cc1cccc(Nc2ncnc3cc4c(cc23)OCCOCCOCCO4)c1 [Icotinib] | -0.289 |
| O=C1C(=O)N(Cc2ccc(Cl)c(Cl)c2)c2ccccc21 [Apoptosis Activator 2] | 0.129 |
| Nc1cccc2c1C(=O)N(C1CCC(=O)NC1=O)C2=O (stereo not given) [Pomalidomide] | 0.0978 |
| CC(C)NCC(O)c1cc(O)cc(O)c1.CC(C)NCC(O)c1cc(O)cc(O)c1.O=S(=O)(O)O (stereo not given) [Metaproterenol Sulfate] | 0.424 |
| Cn1cc(-c2cnn3c(N)c(Br)c([C@@H]4CCCNC4)nc23)cn1 | 0.12 |
| COc1ccc2c(c1)c(CC(=O)O)c(C)n2C(=O)c1ccc(Cl)cc1 [Indomethacin] | -1.33 |
| CN(C)CC(c1ccc(O)cc1)C1(O)CCCCC1.O=C(O)CCC(=O)O (stereo not given) [Desvenlafaxine Succinate] | -0.229 |
| Cc1cc(NC(=O)Nc2ccc(N(C)C)cc2)c2cc(F)cc(F)c2n1 | -0.682 |
| O=C([O-])C[C@H](O)C[C@H](O)C=Cc1c(C2CC2)nc2ccccc2c1-c1ccc(F)cc1.O=C([O-])C[C@H](O)C[C@H](O)C=Cc1c(C2CC2)nc2ccccc2c1-c1ccc(F)cc1.[Ca+2] [Pitavastatin Calcium] | -0.807 |
| Oc1c(Cl)cc(Cl)c2cccnc12 [Chloroxine] | -2.22 |
| CN1CCN(c2c(F)cc3c(=O)c(C(=O)O)cn4c3c2OCN4C)CC1 [Marbofloxacin] | 0.352 |
| CCN1CCCC1CNC(=O)c1cc(S(=O)(=O)CC)c(N)cc1OC (stereo not given) [Amisulpride] | 0.647 |
| Cc1c(-c2ccc(O)cc2)n(Cc2ccc(OCCN3CCCCCC3)cc2)c2ccc(O)cc12.Cl [Bazedoxifene HCl] | 0.214 |
| Cc1cnc(Nc2ccc(N3CCN(C)CC3)cc2)nc1Nc1cccc(S(=O)(=O)NC(C)(C)C)c1 | 0.277 |
| CCN(CC)CCOC(=O)C1(C2CCCCC2)CCCCC1 [Dicyclomine HCl] | 0.509 |
| OC[C@@H](O)[C@@H](O)CO [Erythritol] | -0.139 |
| CC(C)CC(N)=O [Isovaleramide] | 0.44 |
| C#Cc1cccc(Nc2ncnc3cc(OCCOC)c(OCCOC)cc23)c1 [Erlotinib HCl (OSI-744)] | -0.737 |

2 records drawn at random from the list so far, as already listed:

| Structure (SMILES) | Prob-Train |
| --- | --- |
| C#Cc1cccc(Nc2ncnc3cc(OCCOC)c(OCCOC)cc23)c1 [Erlotinib HCl (OSI-744)] | -0.737 |
| Cc1cc(NC(=O)Nc2ccc(N(C)C)cc2)c2cc(F)cc(F)c2n1 | -0.682 |
